Data on one molecule can be found in publication PMC11753439.

These are yes or no findings as the source states them, for the method shown. Binding seen in cells or lysates may run through a third protein. Some results given as binding are weak or reduced against the parent protein; the word gives no strength.

For this experiment, the target named is T1, Nodulin-35 (UniProt P04670).
T1 sequence: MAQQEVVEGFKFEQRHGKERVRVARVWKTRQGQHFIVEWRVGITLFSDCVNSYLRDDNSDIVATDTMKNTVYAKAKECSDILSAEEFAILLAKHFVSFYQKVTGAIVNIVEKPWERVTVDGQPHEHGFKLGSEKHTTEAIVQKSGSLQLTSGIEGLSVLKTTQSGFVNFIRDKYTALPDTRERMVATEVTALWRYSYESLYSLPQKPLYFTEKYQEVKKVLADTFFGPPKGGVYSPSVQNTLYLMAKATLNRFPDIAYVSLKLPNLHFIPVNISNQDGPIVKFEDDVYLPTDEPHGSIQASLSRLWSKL
Briefly: split reporter; BiFC with YFPN and YFPC fusions (p326YFPN, p326YFPC) transformed together into onion epidermal cells; fluorescence microscopy.

B1: AtTRX-o1 (protein, UniProt O64764 43-194)
chain: SSLIARNSLFTASNIGPSIDFNFSNTSLPHRRSLCSEAGGENGVVLVKSEEEFINAMSKAQDGSLPSVFYFTAAWCGPCRFISPVIVELSKQYPDVTTYKVDIDEGGISNTISKLNITAVPTLHFFKGGSKKGEVVGADVTKLKNLMEQLYK
In the case of B1, the binding result was “binds”.
